Measurements taken from the supplement of paper PMC6411743.
± gives the standard deviation of the averaged measurements. Some of the results follow.

Chains of the proteins cited; added tags and fusions are not shown. Lines headed by an entry give the natural chain unless they say otherwise; changes in a name come on top.
UniProt Q9BQS8: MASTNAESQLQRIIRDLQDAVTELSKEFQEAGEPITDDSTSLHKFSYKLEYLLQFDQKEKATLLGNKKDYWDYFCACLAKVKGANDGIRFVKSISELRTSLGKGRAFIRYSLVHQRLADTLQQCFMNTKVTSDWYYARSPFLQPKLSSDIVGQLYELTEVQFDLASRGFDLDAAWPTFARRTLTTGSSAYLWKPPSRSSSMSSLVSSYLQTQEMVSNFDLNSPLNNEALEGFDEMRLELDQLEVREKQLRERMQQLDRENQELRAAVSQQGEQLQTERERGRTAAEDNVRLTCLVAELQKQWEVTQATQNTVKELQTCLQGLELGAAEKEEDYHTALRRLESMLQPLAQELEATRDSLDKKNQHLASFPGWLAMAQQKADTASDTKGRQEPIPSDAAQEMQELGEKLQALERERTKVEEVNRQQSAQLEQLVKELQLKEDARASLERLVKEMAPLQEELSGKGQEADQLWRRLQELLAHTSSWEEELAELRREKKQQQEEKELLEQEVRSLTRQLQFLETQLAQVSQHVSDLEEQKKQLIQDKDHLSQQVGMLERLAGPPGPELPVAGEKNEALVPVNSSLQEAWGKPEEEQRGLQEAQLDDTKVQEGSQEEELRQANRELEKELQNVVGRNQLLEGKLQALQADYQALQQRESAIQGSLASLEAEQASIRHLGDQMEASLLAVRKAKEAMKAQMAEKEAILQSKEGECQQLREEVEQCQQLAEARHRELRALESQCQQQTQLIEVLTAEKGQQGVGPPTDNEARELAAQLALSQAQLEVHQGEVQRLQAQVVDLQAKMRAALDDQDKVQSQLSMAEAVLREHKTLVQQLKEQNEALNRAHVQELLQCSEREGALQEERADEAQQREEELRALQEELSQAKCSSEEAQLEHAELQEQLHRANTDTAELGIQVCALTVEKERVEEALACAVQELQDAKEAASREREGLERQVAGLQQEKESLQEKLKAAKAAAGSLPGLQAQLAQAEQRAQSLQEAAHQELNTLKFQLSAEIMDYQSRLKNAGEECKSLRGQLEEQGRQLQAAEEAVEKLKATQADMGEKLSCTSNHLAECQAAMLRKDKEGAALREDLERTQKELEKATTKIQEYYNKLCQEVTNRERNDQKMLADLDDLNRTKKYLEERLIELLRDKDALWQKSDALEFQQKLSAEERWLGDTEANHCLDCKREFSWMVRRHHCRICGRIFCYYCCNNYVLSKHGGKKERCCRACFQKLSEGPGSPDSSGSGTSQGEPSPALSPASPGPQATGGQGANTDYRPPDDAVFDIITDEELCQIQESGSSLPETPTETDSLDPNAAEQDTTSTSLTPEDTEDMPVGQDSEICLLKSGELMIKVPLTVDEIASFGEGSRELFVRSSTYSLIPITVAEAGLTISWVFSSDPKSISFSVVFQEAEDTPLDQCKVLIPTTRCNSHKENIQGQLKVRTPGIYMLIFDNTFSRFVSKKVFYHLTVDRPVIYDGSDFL
UniProt Q9BYV8: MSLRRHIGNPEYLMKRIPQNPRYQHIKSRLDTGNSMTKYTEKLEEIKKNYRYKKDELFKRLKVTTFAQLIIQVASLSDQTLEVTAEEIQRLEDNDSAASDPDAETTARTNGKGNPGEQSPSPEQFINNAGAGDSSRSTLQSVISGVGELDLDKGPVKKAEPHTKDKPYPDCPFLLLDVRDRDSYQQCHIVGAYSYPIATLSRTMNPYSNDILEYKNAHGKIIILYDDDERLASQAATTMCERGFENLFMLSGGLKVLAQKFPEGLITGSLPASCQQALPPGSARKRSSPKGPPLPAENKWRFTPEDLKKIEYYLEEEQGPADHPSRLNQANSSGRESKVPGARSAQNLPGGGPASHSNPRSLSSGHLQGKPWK
UniProt Q9BYV9: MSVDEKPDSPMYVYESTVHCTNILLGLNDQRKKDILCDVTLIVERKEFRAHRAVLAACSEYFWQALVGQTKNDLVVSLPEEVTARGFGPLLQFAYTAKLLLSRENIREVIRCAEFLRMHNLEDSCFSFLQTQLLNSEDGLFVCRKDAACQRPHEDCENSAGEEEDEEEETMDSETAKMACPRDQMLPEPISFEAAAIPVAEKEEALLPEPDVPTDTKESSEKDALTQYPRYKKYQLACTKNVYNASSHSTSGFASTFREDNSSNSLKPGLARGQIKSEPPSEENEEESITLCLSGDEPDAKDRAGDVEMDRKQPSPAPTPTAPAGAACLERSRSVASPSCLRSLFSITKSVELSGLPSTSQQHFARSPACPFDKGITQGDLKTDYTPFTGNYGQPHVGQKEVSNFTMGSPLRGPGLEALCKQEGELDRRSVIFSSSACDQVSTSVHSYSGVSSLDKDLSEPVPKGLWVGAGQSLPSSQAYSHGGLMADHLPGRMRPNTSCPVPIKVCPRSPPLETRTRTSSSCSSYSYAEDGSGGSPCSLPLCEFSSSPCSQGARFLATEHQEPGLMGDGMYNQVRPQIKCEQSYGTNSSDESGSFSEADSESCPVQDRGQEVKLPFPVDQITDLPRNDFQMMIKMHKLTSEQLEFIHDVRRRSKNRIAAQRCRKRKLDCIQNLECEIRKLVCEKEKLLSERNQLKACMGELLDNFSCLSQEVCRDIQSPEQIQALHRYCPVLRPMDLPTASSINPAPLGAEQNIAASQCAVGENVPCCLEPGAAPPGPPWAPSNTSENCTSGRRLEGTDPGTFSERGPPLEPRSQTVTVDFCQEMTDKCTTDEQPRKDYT
UniProt Q9BRK5: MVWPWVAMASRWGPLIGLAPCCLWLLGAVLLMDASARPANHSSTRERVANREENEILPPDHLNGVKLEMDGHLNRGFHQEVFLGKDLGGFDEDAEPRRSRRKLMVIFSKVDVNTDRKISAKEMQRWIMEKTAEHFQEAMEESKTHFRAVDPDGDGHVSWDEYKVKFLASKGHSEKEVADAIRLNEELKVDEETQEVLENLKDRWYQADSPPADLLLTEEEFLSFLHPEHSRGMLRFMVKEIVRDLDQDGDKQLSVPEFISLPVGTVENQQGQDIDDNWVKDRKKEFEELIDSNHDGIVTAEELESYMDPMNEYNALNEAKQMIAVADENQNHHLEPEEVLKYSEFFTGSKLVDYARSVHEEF
UniProt Q96MG7: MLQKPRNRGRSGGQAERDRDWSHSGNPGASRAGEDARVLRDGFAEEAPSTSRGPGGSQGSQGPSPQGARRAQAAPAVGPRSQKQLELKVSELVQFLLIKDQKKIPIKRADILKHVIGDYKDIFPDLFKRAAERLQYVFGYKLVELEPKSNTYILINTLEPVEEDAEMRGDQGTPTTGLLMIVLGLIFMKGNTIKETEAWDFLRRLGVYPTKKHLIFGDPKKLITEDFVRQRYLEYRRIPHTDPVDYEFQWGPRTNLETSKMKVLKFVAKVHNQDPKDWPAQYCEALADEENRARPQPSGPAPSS
UniProt Q96PK6: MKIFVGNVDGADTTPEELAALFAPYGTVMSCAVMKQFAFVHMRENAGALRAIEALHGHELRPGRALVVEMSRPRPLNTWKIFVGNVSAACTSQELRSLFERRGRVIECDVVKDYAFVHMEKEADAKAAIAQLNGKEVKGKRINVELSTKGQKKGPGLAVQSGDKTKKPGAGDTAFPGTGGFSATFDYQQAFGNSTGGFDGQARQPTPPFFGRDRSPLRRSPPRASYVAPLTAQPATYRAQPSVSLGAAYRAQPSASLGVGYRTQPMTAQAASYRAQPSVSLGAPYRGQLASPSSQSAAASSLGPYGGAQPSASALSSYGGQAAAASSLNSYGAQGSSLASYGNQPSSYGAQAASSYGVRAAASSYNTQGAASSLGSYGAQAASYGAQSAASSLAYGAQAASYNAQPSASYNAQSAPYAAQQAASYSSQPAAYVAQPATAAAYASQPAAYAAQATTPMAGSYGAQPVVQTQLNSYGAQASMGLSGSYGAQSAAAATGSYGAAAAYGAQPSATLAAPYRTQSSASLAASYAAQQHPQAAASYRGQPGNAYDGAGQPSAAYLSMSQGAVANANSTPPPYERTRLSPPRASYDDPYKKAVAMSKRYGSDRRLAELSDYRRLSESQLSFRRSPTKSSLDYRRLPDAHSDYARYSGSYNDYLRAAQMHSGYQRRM
UniProt Q99447: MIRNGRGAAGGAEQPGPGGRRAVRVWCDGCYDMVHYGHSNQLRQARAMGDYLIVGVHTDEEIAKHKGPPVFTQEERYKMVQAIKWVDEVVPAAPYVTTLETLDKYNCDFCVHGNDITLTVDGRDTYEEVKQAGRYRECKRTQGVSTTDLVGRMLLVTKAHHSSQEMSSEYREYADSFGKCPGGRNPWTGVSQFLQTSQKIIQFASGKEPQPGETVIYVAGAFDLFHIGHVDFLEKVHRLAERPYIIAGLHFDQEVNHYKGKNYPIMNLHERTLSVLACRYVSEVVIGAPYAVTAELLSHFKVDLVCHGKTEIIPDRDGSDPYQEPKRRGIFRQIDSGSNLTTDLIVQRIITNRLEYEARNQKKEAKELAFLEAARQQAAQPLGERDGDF

Compound: Nc1nc2c(ncn2[C@@H]2O[C@H](COP(=O)(O)OP(=O)(O)OP(=O)(O)O)[C@@H](O)[C@H]2O)c(=O)[nH]1 [guanosine triphosphate]
Experiment: NP40-soluble protein abundance relative to vehicle (solubility fold change) (ratio); higher = more soluble protein in presence of GTP
Procedure, shortened: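 In three independent experiments, Jurkat crude lysate made by Dounce homogenisation was treated for 10 min at room temperature and then 3 min at 37 °C with eight concentrations ranging from 0.1 to 10 mM. It was then solubilised with 0.8% NP40 plus benzonase for 60 min at 4 °C and ultracentrifuged. The supernatant was TMT-labelled for LC-MS/MS, and each value is the fold change against the detergent-processed vehicle for the same replicate, using vsn-normalised intensities.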

Target UniProt Q9BQS8 and related entries has an NP40-soluble protein abundance (concentration: 0.1mM) of 1.03 ± 0.1, an NP40-soluble protein abundance (concentration: 0.5mM) of 0.991 ± 0.067 and an NP40-soluble protein abundance (concentration: 1mM) of 1.05 ± 0.074. The NP40-soluble protein abundance (concentration: 2mM) was 1.06 ± 0.11, the NP40-soluble protein abundance (concentration: 4mM) was 1.1 ± 0.047 and the NP40-soluble protein abundance (concentration: 6mM) was 1.04 ± 0.03. It also gave an NP40-soluble protein abundance (concentration: 8mM) of 1.03 ± 0.06 and an NP40-soluble protein abundance (concentration: 10mM) of 1.04 ± 0.11.
UniProt Q9BYV8 showed an NP40-soluble protein abundance (concentration: 0.1mM) of 0.947 ± 0.061, an NP40-soluble protein abundance (concentration: 0.5mM) of 0.894 ± 0.11 and an NP40-soluble protein abundance (concentration: 1mM) of 0.975 ± 0.069. The NP40-soluble protein abundance (concentration: 2mM) was 0.957 ± 0.11, the NP40-soluble protein abundance (concentration: 4mM) was 0.95 ± 0.14 and the NP40-soluble protein abundance (concentration: 6mM) was 0.952 ± 0.14. The NP40-soluble protein abundance (concentration: 8mM) was 0.93 ± 0.11 and the NP40-soluble protein abundance (concentration: 10mM) was 0.975 ± 0.068.
Work on BACH2 (UniProt Q9BYV9) yielded an NP40-soluble protein abundance (concentration: 0.1mM) of 1.02 ± 0.015, an NP40-soluble protein abundance (concentration: 0.5mM) of 1.01 ± 0.12 and an NP40-soluble protein abundance (concentration: 1mM) of 1.1 ± 0.029. For the same target, the NP40-soluble protein abundance (concentration: 2mM) was 0.979 ± 0.073, the NP40-soluble protein abundance (concentration: 4mM) was 1.06 ± 0.056 and the NP40-soluble protein abundance (concentration: 6mM) was 1.14 ± 0.14. For the same target, the NP40-soluble protein abundance (concentration: 8mM) was 1.02 ± 0.057 and the NP40-soluble protein abundance (concentration: 10mM) was 1.11 ± 0.014.
SDF4 (UniProt Q9BRK5) showed an NP40-soluble protein abundance (concentration: 0.1mM) of 0.937 ± 0.025, an NP40-soluble protein abundance (concentration: 0.5mM) of 0.892 ± 0.074 and an NP40-soluble protein abundance (concentration: 1mM) of 1.03 ± 0.034. For the same target, the NP40-soluble protein abundance (concentration: 2mM) was 0.982 ± 0.057, the NP40-soluble protein abundance (concentration: 4mM) was 0.978 ± 0.059 and the NP40-soluble protein abundance (concentration: 6mM) was 0.975 ± 0.078. The NP40-soluble protein abundance (concentration: 8mM) was 0.952 ± 0.067 and the NP40-soluble protein abundance (concentration: 10mM) was 0.986 ± 0.032.
UniProt Q96MG7 was tested, and the NP40-soluble protein abundance (concentration: 0.1mM) was 0.98 ± 0.11, the NP40-soluble protein abundance (concentration: 0.5mM) was 0.958 ± 0.048 and the NP40-soluble protein abundance (concentration: 1mM) was 1.12 ± 0.089. The NP40-soluble protein abundance (concentration: 2mM) was 1.13 ± 0.053, the NP40-soluble protein abundance (concentration: 4mM) was 1.11 ± 0.12 and the NP40-soluble protein abundance (concentration: 6mM) was 1.1 ± 0.05. The NP40-soluble protein abundance (concentration: 8mM) was 1.08 ± 0.13 and the NP40-soluble protein abundance (concentration: 10mM) was 1.17 ± 0.21.
Target RBM14 (UniProt Q96PK6) has an NP40-soluble protein abundance (concentration: 0.1mM) of 0.984 ± 0.049, an NP40-soluble protein abundance (concentration: 0.5mM) of 0.997 ± 0.044 and an NP40-soluble protein abundance (concentration: 1mM) of 1.01 ± 0.048. It also gave an NP40-soluble protein abundance (concentration: 2mM) of 1.07 ± 0.054, an NP40-soluble protein abundance (concentration: 4mM) of 1.13 ± 0.053 and an NP40-soluble protein abundance (concentration: 6mM) of 1.17 ± 0.047. It also gave an NP40-soluble protein abundance (concentration: 8mM) of 1.2 ± 0.042 and an NP40-soluble protein abundance (concentration: 10mM) of 1.19 ± 0.066.
Work on UniProt Q99447 and related entries yielded an NP40-soluble protein abundance (concentration: 0.1mM) of 0.998 ± 0.022, an NP40-soluble protein abundance (concentration: 0.5mM) of 1 ± 0.017 and an NP40-soluble protein abundance (concentration: 1mM) of 0.954 ± 0.045. For the same target, the NP40-soluble protein abundance (concentration: 2mM) was 0.939 ± 0.02, the NP40-soluble protein abundance (concentration: 4mM) was 0.917 ± 0.047 and the NP40-soluble protein abundance (concentration: 6mM) was 0.909 ± 0.029. It also gave an NP40-soluble protein abundance (concentration: 8mM) of 0.899 ± 0.057 and an NP40-soluble protein abundance (concentration: 10mM) of 0.857 ± 0.082.
